Values quoted from earlier work, collected in patent US6696084B2 (RTP Pharma Inc., priority 2000, dated 2004).

Settings: oral administration with or without food

## CC(C)c1c(C(=O)Nc2ccccc2)c(-c2ccccc2)c(-c2ccc(F)cc2)n1CC[C@@H](O)C[C@@H](O)CC(=O)O [Atorvastatin]
  food effect on absorption / uptake: Food decreases the rate and extent of drug absorption
